A short description of the assay: qHTS Assay for Modulators of Lamin A Splicing. To be noted: HeLa LMNA splicing GFP/RFP minigene ratio, 48 h. In outline:
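Read-out is the ratio of GFP to DsRed2 object intensity, acquired by 488 nm laser-scanning cytometry on HeLa lamin A-EGFP minigene reporter cells. Compound incubation 48 hrs at 37 °C in Opti-MEM with 2% FBS; DMSO 0.5% final.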

Setting [1] is: measured here: RFP viability control channel.
Setting [2] is: measured here: GFP splicing reporter channel.

Structures are written as SMILES. Some of the results follow. The main result of the screen is listed elsewhere. These columns were measured beside it and carry no call. The list favours compounds with an active or inconclusive main result. The note in brackets gives the kind of curve behind each potency; many fits are weak.

Data on 55 compounds can be found in PubChem BioAssay AID1487 (National Center for Advancing Translational Sciences (NCATS), 2009).

For orientation: AC50 means the concentration giving half of the maximal activity seen.

Consider `Cc1ccccc1NC(=S)NCCc1c[nH]c2ccccc12`, for which the AC50 under setting [1] is 35.5 µM [rising, single point].
For the compound `Nc1ccc(C23CC4CC(CC(C4)C2)C3)cc1`, the AC50 under setting [2] is 0.0158 µM [falling, full curve] and the AC50 under setting [1] was 0.00355 µM [falling, full curve, poor fit].
Take `CCNC(=O)/C(C#N)=C/c1c(N(Cc2ccccc2)Cc2ccccc2)nc2ccccn2c1=O`: the AC50 under setting [1] was 14.1 µM [rising, single point].
With `CCOc1ccc(C(=O)c2cc([N+](=O)[O-])ccc2N2CCOCC2)cc1`, the AC50 by setting is: under setting [2], 0.316 µM [rising, full curve]; under setting [1], 0.158 µM [rising, full curve].
Regarding `CC(C)C(=O)NC(Nc1cc(C(F)(F)F)ccc1Cl)C(Cl)(Cl)Cl` (configuration not stated), the AC50 under setting [1] is 12.6 µM [rising, partial curve].
Regarding `CN1/C(=C\C(=O)CSc2nnc(NCc3ccccc3)s2)C(C)(C)c2ccccc21`, the AC50 reads like this: under setting [2], 11.2 µM [rising, partial curve]; under setting [1], 15.8 µM [rising, partial curve].
As to `Cn1nnnc1SCC(=O)N1c2ccccc2Sc2ccc(Cl)cc21`, under setting [1], the AC50 is 35.5 µM [rising, single point].
As to `c1ccc(-c2nc(N3CCN(c4ccccc4)CC3)nc(-n3ccnc3)n2)cc1`, the AC50 runs as follows: under setting [2], 12.6 µM [rising, partial curve]; under setting [1], 22.4 µM [rising, single point].
As for `COc1cc(NC2=Nc3cccc4cccc2c34)cc(OC)c1OC`, the AC50 under setting [1] was 35.5 µM [rising, single point].
As for `O=C(O)/C=C\c1ccc(Cn2ccnc2)cc1`, the AC50 was 0.00891 µM [falling, full curve, poor fit] under setting [2] and 0.00891 µM [falling, full curve, poor fit] under setting [1].
As to `Cc1ccc(Cn2nnc3c(=O)[nH]c(C4CCN(S(=O)(=O)c5ccc(F)cc5)CC4)nc32)cc1`, the AC50 under setting [1] is 35.5 µM [rising, single point].
On the same count and under the same terms, with `CC(C)CNC(=S)NNC(=O)c1csc2c1CCC(C)C2` (configuration not stated) the figure was 22.4 µM [rising, single point]; with `COc1ccc(NS(=O)(=O)c2cc(NC(=O)CNC(=O)c3cccc(OC)c3)ccc2C)cc1`, 3.16 µM [falling, single point].
For `CC(=O)c1cccc(NC2c3ccccc3C(=O)N2Cc2ccc3c(c2)OCO3)c1` (configuration not stated), the AC50 under setting [1] was 12.6 µM [rising, single point].
As for `O=C1c2ccccc2-c2cccc(NS(=O)(=O)c3ccc(C(F)(F)F)cc3)c21`, the AC50 is, setting by setting: under setting [2], 22.4 µM [rising, single point]; under setting [1], 35.5 µM [rising, single point].
With `Cc1ccc(OCC(O)Cn2c(=N)n(CCN3CCOCC3)c3ccccc32)cc1` (configuration not stated), the AC50 runs as follows: under setting [2], 35.5 µM [rising, single point]; under setting [1], 35.5 µM [rising, single point].
As for `CCCc1cnc2c(c1SCC(=O)Nc1c(C)cc(C)cc1C)c(=O)n(C)c(=O)n2C`, the AC50 is, setting by setting: under setting [2], 10 µM [rising, partial curve, poor fit]; under setting [1], 2.24 µM [rising, full curve].
Turning to `COc1cccc(CN(C)c2nc(-c3cccs3)nc3ccccc23)c1`, the AC50 under setting [2] was 11.2 µM [rising, single point] and the AC50 under setting [1] was 22.4 µM [rising, single point].
In the case of `CCC1(C)CC(CCNS(=O)(=O)c2ccc(C)cc2)(c2ccc(C)cc2)CCO1` (configuration not stated), the concentration at half-maximal activity (AC50) reads like this: under setting [2], 15.8 µM [falling, single point]; under setting [1], 14.1 µM [falling, partial curve].
With `CC(C)(NO)/C(=N\O)c1ccc(Cl)cc1`, under setting [1], the AC50 is 20 µM [falling, partial curve].
In the case of `CSc1nc(N)nc(SCC(=O)c2ccc(C)cc2)c1C#N`, the AC50 under setting [1] was 12.6 µM [rising, single point].
On the same count and under the same terms, the result for `CCOC(=O)/C(=N/Nc1ccc(Cl)cc1)S(=O)(=O)c1ccccc1` reads 35.5 µM [rising, single point].
`Cc1cc(C)cc(N(C(=O)c2nsc(Cl)c2Cl)C(C(=O)NC2CCCC2)c2ccc(O)cc2)c1` (configuration not stated): under setting [1], the AC50 is 17.8 µM [rising, partial curve].
As to `O=C(/C=C/c1cn(CC(O)CN2CCCCCC2)c2ccccc12)c1cccs1` (configuration not stated), the AC50 under setting [1] is 25.1 µM [rising, single point].
Consider `Cc1ccc(OCc2nnc(SCC(=O)Nc3ccccc3C(C)C)o2)cc1`, for which, under setting [1], the AC50 is 0.0398 µM [falling, full curve, poor fit].
With `Cc1cccc(NS(=O)(=O)c2cnc[nH]2)c1`, the AC50 under setting [1] is 0.891 µM [falling, full curve, poor fit].
Consider `CC(=O)c1ccc(OCC(O)CN2CCN(CCN3C(=O)c4cccc5cccc(c45)C3=O)CC2)cc1` (configuration not stated), for which the AC50 is 20 µM [rising, single point] under setting [2] and 17.8 µM [rising, single point] under setting [1].
Regarding `Cc1ccc2[nH]c(=O)c(CN(C(=O)c3cccs3)c3ccccc3)cc2c1`, the AC50 under setting [1] is 0.891 µM [falling, full curve, poor fit].
For the compound `C/C(=N/NC(=O)CCCOc1ccc(Cl)cc1Cl)c1ccc(C)o1`, the AC50 under setting [1] is 35.5 µM [rising, single point].
As to `CSc1nc(N)nc(SCC(=O)Nc2cccc(F)c2)c1C#N`, the AC50 under setting [2] is 0.0447 µM [rising, full curve, poor fit] and the AC50 under setting [1] is 2.82 µM [rising, full curve].
Turning to `CC(C)(C)n1nnnc1C(c1ccc(F)cc1)N1CCC(C(N)=O)CC1` (configuration not stated), the AC50 under setting [1] was 1.41 µM [falling, full curve, poor fit].
As for `CCOC(=O)C1=C(C)NC(C)=C(C(=O)OCC)C1c1ccccc1C=CC(=O)OC(C)(C)C`, the AC50 is, setting by setting: under setting [2], 35.5 µM [falling, partial curve, poor fit]; under setting [1], 35.5 µM [falling, single point].
On to `O=C(CN1CCC(n2nnc3cc(C(F)(F)F)ccc32)CC1)Nc1ccc2c(c1)OCCO2`, for which the AC50 by setting is: under setting [2], 11.2 µM [rising, partial curve]; under setting [1], 17.8 µM [rising, partial curve].
Take `CCOC(=O)c1oc2ccc3c(c2c1C)C(=O)CC1(CCN(C(=O)OCC)CC1)O3`: the concentration at half-maximal activity (AC50) was 35.5 µM [rising, single point] under setting [2] and 35.5 µM [rising, single point] under setting [1].
`COc1ccc(CCNS(=O)(=O)c2ccc(N3CCCCS3(=O)=O)cc2)cc1OC`: the AC50 under setting [1] is 3.98 µM [falling, full curve, poor fit].
Turning to `Cc1cc(NC(=O)/C=C/C(=O)N(c2ccccc2C)C(C(=O)NC2CCCC2)c2ccc(F)cc2)no1` (configuration not stated), the AC50 reads like this: under setting [2], 14.1 µM [falling, single point]; under setting [1], 0.178 µM [falling, single point].
With `COc1cccc(CC2(CO)CCCN(Cc3cn[nH]c3C3CCCCC3)C2)c1` (configuration not stated), the AC50 under setting [1] was 4.47 µM [falling, partial curve, poor fit].
As for `C1=C(c2ccccc2)Nc2ccccc2N=C1c1ccccc1`, the AC50 is, setting by setting: under setting [2], 12.6 µM [rising, single point]; under setting [1], 35.5 µM [rising, single point].
For the compound `O=C(Cn1cnc2onc(-c3ccc(F)cc3)c2c1=O)Nc1cccc(C(F)(F)F)c1`, the AC50 under setting [2] is 20 µM [falling, partial curve] and the AC50 under setting [1] is 17.8 µM [falling, partial curve].
Regarding `COc1ccccc1N(CC(O)Cn1c2ccccc2c2ccccc21)S(=O)(=O)c1ccccc1` (configuration not stated), the AC50 reads like this: under setting [2], 10 µM [rising, partial curve]; under setting [1], 14.1 µM [rising, partial curve].
Consider `COc1ccc(N=C(NN)c2ccc3ccccc3n2)cc1`, for which the AC50 under setting [2] was 35.5 µM [rising, single point].
With `CCc1ccc(NSc2ccccc2[N+](=O)[O-])cc1`, the AC50 under setting [1] was 15.8 µM [rising, partial curve].
For `O=C(Nc1nc2ccccc2n1CCOc1ccccc1)c1ccco1`, the AC50 under setting [1] is 35.5 µM [rising, single point].
As for `C/C(=N\NC(=O)Cc1ccc(Cl)cc1)c1ccccn1`, the AC50 is 3.16 µM [falling, single point] under setting [2] and 17.8 µM [falling, partial curve] under setting [1].
On to `CC(C)=CCN1CCN(Cc2ccc(C)s2)CC1CCO` (configuration not stated), for which the AC50 under setting [2] is 6.31 µM [rising, single point].
Regarding `CCC(C(=O)NNC(=O)c1cnccn1)c1ccccc1` (configuration not stated), the AC50 under setting [1] was 22.4 µM [rising, single point].
As for `C=CCSc1nnc(NC(=O)CSc2nc(CCC)cc(=O)[nH]2)s1`, the half-maximal activity concentration (AC50) under setting [1] is 12.6 µM [rising, partial curve, poor fit].
With `Cc1cc(C)cc(NC(=O)CSc2nnc(-c3ccccc3Br)o2)c1`, the AC50 under setting [2] was 15.8 µM [falling, single point].
Consider `Cc1nnc(-c2ccc(Oc3ccc(C)c(C)c3)c([N+](=O)[O-])c2)o1`, for which the AC50 runs as follows: under setting [2], 31.6 µM [rising, single point]; under setting [1], 31.6 µM [rising, single point].
Take `Cc1cc(NC(=O)CSc2nnc(C(C)N(C)C)n2Cc2ccccc2)no1` (configuration not stated): the AC50 under setting [1] is 0.00447 µM [falling, full curve, poor fit].
For the compound `Cc1ccc(NC(=O)c2cc(S(=O)(=O)c3ccccc3)ccc2Cl)cc1`, the AC50 is 31.6 µM [rising, single point] under setting [2] and 35.5 µM [rising, single point] under setting [1].
In the case of `O=C(Nc1ccc(S(=O)(=O)NCc2ccco2)cc1)c1ccncc1`, the AC50 under setting [1] is 15.8 µM [rising, single point].
Turning to `O=C(Nc1ccc(NC(=O)C2CC2)cn1)c1ccccc1Cl`, the AC50 under setting [1] is 14.1 µM [rising, single point].
Same read-out and setting: with `Cc1ccc(NC(=O)CSc2nnnn2C)cc1S(=O)(=O)N(C)C` the figure was 7.08 µM [rising, partial curve, poor fit]; with `CCOC(=O)c1ccc(-n2ccnc2)c(NC(=O)c2ccc(C(C)(C)C)cc2)c1`, 1.58 µM [rising, partial curve].
